Measurements published in patent publication US20070185115A1, “Novel ureido-and amido-pyrazolone derivatives” (Aston University, priority 2003, published 2007).
At least one structure is not confirmed: it was looked up by name or label, or the drawing left a doubt.

Target: T1, CCKA receptor (Rattus norvegicus, UniProt P30551)
T1 construct: Pancreatic membranes were prepared in a similar way but by Charpentier et al; from tissue; host or cells: rat pancreas membranes
T1 sequence (P30551 1-444): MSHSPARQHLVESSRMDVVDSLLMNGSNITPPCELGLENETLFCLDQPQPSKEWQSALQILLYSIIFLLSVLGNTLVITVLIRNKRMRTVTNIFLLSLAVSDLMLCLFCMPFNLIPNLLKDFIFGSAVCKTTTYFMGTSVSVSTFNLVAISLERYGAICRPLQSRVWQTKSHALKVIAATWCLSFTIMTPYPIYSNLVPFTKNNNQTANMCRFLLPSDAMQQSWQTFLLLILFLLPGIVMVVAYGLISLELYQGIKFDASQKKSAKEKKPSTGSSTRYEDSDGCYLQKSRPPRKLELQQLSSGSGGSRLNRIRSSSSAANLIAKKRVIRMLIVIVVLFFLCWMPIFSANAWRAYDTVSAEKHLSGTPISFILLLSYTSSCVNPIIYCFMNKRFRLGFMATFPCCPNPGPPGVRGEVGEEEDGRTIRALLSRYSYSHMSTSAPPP
Assay: 125I-CCK-8 receptor binding assay, CCKA (rat pancreas membranes)
Details: Table 2; ratio of CCKB and CCKA IC50 values
Protocol: Pharmacological Methods—^[125]I-CCK-8 Receptor Binding Assay
CCKA and CCKB receptor binding assays were performed, by using guinea pig cerebral cortex (CCKB) or rat pancreas (CCKA). Male guinea pig brain tissues were prepared according to the modified method described by Saita et al, [(1994), Characterization of YM022: its CCKB/gastrin receptor binding profile and antagonism to CCK-8-induced Ca2+mobilization., Eur. J. PharmacoL,269, 249-254]. Pancreatic membranes were prepared in a similar way but by Charpentier et al, [(1988), Cyclic cholecystokinin analogues with high selectivity for central receptors., Proc Natl Acad Sci USA, 85, 1968-1972]. For the in vivo CCK binding assay tissues were homogenised in ice cold sucrose (0.32 M, 25 ml) for 15 strokes at 500 rpm and centrifuged at 13000 rpm for 10 mins. The supernatant was re-centrifuged at 13000 rpm for 20 mins. The resulting pellet was re-dispersed to the required volume of buffer at 500 rpm and stored in aliquots at […].
Binding was achieved using a.radioligand ^125I-Bolton-Hunter labeled CCK, NEN at 25 pM. […] The membrane pellets were washed twice with water and the bound radioactivity was measured in a Packard Cobra Auto-gamma counter (B5005). […]

In the case of Cc1c(NC(=O)c2c[nH]c3ccccc23)c(=O)n(-c2ccccc2)n1C [Example 18], the “Ratio A/B” value is reported as 7.5.
